This is an account of results in PMC6123492, “Structural and biochemical insights into small RNA 3′ end trimming by Arabidopsis SDN1”.

Residue numbers refer to the chain shown, from its start. For some of these results: The comparison behind a weaker result is the experiment's own reference, which may not be listed here. Protein sequences can lack the tags named with them. For some of these results: The exact form of at least one protein or probe is not confirmed. For some of these results: At least one verdict rests on a figure or table, not on a statement of the authors.

Holding throughout (experiment): EMSA
Data set [1] addresses T1, SDN1 2FA F318A,F356A (Arabidopsis thaliana) (UniProt A3KPE8).
T1 sequence (looked up): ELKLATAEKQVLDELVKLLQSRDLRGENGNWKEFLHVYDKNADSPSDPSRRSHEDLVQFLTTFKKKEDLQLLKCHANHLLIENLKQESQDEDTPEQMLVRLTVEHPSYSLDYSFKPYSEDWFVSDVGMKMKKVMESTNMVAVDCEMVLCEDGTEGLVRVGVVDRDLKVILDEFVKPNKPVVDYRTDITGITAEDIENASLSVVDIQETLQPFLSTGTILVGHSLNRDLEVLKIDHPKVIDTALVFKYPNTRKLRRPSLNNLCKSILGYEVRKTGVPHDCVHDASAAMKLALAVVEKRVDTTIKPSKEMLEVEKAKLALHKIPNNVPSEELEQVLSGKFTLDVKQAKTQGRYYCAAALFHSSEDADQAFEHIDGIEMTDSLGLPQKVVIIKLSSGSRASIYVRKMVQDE
Particulars: no Mg2+, EMSA: 50 mM Tris pH 8.0, 100 mM NaCl, 1 mM DTT, 2 nM RNA, on ice 30 min, 8% native PAGE in 0.5x TBE, recombinant protein, residues 2-409, protein details: His-SUMO tag removed. For orientation: A gel shift assay detects complexes by their altered migration in electrophoresis.

In data set [2] the target is T2, SDN1 wild type (Arabidopsis thaliana) (UniProt A3KPE8).
T2 sequence (looked up): T1 sequence (looked up) with A317F, A355F
Particulars: no Mg2+, EMSA: 50 mM Tris pH 8.0, 100 mM NaCl, 1 mM DTT, 2 nM RNA, on ice 30 min, 8% native PAGE in 0.5x TBE, recombinant protein, residues 2-409, protein details: His-SUMO tag removed, label: 5' 32P.

Data set [3] deals with T3, SDN1 F318A (Arabidopsis thaliana) (UniProt A3KPE8).
T3 sequence (looked up): T1 sequence (looked up) with A355F
Particulars: no Mg2+, EMSA: 50 mM Tris pH 8.0, 100 mM NaCl, 1 mM DTT, 2 nM RNA, on ice 30 min, 8% native PAGE in 0.5x TBE, recombinant protein, residues 2-409, protein details: His-SUMO tag removed, label: 5' 32P.

With “UCGGACCAGGCUUCAUCCCCC / GAUUCCCCUGAAGCUUGGUCCGGAUUA [miR166:T6]”, the binding result in data set [1] (label: 5' 32P on miR166 strand) is recorded as “binds more weakly”.
Take UCGGACCAGGCUUCAUCCCCC [miR166]: the values for the binding result in data set [2], in data set [3] and in data set [1] (label: 5' 32P) were “binds”, “binds more weakly” and “binds more weakly”, respectively.
